By UniProt entry, the sequences of proteins in these tests, tags left out. Where a name states a change or a piece, a line headed by the entry shows the natural chain unless it says otherwise.
UniProt P61517: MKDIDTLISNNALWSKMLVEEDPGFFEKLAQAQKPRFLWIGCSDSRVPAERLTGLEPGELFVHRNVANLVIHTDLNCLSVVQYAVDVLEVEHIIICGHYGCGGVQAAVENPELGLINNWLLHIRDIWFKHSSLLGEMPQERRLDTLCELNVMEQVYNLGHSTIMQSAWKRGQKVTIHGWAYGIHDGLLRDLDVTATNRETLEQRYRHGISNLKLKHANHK

In publication PMC11357054, “Azobenzenesulfonamide Carbonic Anhydrase Inhibitors as New Weapons to Fight Helicobacter pylori: Synthesis, Bioactivity Evaluation, In Vivo Toxicity, and Computational Studies” (Pharmaceuticals, 2024):

Legend:
EcoβCA = biological target: T1, EcoβCA (Escherichia coli, UniProt P61517); assay: stopped-flow CO2 hydration; type: biochemical; conditions: pH […] HEPES, […] Na2SO4, […] min preincubation, r.t.; read-out: KI (nM) * / Bacterial Isoforms / Eco βCA
T1 construct: gene can; recombinant, obtained in-house
Description: stopped-flow CO2 hydration on EcoβCA

HpβCA = biological target: T2, HpβCA (Helicobacter pylori, UniProt Q9ZN54); assay: stopped-flow CO2 hydration; type: biochemical; conditions: read-out: KI (nM) * / Bacterial Isoforms / Hp βCA
T2 construct: gene cynT; recombinant, obtained in-house
T2 sequence (Q9ZN54 1-221): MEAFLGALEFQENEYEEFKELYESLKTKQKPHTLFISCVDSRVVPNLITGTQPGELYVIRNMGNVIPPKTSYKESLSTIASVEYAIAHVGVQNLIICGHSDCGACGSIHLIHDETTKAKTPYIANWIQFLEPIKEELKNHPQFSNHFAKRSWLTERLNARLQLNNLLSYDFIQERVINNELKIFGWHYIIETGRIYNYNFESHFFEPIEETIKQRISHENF
Description: stopped-flow CO2 hydration on HpβCA

CC(=O)Nc1nnc(S(N)(=O)=O)s1 [acetazolamide, reference compound]
Ki (EcoβCA): 227 nM
Ki (HpβCA): 40 nM
